The supplement of paper PMC10849652
The other results are listed elsewhere or left out.

The chains behind the UniProt entries cited, without tags or fusion partners. Where a name states a change or a piece, a line headed by the entry shows the natural chain unless it says otherwise.
UniProt Q8WYH8, whole entry, looked up: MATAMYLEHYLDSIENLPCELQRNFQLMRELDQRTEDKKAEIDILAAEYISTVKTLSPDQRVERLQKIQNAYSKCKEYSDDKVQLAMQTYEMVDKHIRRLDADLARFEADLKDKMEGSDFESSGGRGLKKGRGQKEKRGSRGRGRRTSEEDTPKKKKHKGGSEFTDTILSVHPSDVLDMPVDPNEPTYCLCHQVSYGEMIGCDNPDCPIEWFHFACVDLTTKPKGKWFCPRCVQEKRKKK
UniProt P28290: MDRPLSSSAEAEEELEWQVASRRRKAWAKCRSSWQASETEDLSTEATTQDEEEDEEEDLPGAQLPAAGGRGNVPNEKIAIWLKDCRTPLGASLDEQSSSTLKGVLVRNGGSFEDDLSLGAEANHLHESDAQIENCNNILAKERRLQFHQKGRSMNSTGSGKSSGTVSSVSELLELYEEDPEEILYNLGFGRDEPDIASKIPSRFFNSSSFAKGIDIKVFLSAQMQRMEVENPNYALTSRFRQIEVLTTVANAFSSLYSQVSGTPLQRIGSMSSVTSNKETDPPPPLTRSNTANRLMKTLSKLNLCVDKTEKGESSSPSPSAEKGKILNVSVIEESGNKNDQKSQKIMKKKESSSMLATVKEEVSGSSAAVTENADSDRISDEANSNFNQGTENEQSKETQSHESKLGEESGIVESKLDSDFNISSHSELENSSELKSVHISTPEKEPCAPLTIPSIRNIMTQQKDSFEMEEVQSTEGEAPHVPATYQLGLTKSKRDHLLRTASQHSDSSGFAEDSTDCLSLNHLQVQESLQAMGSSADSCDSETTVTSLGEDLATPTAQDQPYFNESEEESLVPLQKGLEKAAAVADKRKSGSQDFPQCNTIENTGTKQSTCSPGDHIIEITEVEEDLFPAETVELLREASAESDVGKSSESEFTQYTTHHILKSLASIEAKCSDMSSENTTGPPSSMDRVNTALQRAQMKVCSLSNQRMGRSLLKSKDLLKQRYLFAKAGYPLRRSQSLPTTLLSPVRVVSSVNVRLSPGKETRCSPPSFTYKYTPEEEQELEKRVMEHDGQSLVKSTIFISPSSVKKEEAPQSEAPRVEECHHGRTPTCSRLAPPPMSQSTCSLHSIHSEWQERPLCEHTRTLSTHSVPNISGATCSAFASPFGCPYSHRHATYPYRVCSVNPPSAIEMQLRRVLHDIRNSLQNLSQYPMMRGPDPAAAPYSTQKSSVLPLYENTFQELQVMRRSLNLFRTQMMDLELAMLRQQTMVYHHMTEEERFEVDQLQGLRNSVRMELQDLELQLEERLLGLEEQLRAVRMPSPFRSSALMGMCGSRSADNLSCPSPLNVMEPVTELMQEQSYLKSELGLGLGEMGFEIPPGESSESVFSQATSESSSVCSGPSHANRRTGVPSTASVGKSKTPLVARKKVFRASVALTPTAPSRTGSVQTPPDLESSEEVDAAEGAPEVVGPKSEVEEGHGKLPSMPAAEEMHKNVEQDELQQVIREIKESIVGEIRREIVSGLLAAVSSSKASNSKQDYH
UniProt P24592: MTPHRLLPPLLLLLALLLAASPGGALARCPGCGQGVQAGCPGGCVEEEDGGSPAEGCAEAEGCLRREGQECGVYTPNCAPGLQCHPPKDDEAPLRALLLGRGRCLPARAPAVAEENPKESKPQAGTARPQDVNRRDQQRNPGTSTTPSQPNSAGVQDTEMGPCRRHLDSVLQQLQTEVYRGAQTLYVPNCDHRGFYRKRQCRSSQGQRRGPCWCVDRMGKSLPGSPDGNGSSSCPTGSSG
UniProt Q13352: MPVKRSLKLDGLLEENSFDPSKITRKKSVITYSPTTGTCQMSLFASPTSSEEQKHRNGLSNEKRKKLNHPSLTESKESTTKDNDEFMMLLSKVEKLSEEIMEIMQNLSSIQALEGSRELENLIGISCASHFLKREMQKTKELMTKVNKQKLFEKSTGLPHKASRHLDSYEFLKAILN
UniProt P19827: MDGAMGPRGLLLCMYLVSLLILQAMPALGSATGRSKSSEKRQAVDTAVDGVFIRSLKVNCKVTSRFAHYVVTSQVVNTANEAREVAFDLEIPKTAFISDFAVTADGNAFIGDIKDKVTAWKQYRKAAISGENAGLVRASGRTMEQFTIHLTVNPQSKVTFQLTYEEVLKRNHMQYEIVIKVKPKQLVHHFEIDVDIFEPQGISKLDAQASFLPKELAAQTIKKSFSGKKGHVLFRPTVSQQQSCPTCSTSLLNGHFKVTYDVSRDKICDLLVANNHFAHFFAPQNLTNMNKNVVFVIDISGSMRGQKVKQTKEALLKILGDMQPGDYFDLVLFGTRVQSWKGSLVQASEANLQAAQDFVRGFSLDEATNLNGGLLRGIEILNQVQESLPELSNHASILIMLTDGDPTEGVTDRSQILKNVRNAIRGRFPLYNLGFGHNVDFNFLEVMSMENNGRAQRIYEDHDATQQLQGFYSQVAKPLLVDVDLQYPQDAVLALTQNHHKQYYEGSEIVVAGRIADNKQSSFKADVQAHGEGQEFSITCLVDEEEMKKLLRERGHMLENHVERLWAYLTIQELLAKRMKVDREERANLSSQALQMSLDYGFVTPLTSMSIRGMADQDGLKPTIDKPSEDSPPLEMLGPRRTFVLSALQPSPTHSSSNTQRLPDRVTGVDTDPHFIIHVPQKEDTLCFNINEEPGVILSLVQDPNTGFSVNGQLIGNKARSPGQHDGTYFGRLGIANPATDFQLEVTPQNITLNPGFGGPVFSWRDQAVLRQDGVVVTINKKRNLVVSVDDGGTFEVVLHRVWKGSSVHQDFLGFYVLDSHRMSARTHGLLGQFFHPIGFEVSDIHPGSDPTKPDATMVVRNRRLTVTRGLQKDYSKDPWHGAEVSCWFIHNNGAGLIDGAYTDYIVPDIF
UniProt P22304: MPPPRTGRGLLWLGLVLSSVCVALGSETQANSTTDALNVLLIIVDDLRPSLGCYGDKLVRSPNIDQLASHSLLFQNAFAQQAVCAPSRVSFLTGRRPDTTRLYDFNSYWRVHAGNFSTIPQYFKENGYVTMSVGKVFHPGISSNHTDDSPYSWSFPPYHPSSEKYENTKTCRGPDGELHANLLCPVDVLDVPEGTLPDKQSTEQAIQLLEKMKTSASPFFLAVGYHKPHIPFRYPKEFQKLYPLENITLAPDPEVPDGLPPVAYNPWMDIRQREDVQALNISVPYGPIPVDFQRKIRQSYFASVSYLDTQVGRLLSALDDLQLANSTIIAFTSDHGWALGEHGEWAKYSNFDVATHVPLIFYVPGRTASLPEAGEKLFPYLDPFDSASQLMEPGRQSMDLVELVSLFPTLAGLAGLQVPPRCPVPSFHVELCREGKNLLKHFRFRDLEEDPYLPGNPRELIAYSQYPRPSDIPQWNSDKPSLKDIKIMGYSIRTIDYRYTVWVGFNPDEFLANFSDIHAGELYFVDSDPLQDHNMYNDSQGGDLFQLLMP
UniProt Q9NXR8, whole entry, looked up: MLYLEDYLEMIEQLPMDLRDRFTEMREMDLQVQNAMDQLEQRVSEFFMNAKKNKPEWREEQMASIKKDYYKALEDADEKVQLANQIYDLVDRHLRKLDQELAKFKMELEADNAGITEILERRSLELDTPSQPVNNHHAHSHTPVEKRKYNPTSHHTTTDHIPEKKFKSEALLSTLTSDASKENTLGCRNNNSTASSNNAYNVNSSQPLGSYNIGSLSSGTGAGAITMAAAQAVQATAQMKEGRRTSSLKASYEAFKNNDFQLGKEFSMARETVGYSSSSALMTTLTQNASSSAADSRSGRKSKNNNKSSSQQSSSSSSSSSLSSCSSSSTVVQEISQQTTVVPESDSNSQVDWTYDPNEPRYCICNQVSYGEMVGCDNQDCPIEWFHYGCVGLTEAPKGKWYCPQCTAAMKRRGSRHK
UniProt Q9UNL4, whole entry, looked up: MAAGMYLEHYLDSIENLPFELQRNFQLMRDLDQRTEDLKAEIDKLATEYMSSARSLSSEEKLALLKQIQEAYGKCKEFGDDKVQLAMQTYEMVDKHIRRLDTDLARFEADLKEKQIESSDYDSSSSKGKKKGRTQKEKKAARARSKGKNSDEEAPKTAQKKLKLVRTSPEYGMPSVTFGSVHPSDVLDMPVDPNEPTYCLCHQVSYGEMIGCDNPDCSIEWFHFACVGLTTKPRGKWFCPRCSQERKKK
UniProt Q9NQS7, whole entry, looked up: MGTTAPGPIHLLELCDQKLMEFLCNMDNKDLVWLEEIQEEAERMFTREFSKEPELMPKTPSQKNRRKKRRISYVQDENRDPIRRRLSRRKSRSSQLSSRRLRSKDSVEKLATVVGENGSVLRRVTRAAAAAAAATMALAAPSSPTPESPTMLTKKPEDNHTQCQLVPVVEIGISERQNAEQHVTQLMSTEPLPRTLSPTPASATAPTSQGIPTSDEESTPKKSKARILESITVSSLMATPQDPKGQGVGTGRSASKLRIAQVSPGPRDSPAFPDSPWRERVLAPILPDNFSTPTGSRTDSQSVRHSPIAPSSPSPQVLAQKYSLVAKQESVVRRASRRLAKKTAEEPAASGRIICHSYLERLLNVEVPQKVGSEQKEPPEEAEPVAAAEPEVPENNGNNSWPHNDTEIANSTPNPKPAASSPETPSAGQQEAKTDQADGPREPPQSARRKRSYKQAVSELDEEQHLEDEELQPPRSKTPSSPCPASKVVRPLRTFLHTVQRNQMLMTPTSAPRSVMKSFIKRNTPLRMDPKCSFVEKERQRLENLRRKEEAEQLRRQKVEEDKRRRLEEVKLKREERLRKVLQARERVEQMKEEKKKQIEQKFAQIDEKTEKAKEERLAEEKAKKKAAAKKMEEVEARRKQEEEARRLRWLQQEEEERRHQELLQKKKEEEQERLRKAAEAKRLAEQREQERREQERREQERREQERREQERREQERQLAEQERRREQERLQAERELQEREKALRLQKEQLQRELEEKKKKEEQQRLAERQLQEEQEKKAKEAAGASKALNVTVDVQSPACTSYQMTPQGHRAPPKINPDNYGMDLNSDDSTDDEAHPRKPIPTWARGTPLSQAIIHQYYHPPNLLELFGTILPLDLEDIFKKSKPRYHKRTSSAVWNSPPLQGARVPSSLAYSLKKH
UniProt P35475: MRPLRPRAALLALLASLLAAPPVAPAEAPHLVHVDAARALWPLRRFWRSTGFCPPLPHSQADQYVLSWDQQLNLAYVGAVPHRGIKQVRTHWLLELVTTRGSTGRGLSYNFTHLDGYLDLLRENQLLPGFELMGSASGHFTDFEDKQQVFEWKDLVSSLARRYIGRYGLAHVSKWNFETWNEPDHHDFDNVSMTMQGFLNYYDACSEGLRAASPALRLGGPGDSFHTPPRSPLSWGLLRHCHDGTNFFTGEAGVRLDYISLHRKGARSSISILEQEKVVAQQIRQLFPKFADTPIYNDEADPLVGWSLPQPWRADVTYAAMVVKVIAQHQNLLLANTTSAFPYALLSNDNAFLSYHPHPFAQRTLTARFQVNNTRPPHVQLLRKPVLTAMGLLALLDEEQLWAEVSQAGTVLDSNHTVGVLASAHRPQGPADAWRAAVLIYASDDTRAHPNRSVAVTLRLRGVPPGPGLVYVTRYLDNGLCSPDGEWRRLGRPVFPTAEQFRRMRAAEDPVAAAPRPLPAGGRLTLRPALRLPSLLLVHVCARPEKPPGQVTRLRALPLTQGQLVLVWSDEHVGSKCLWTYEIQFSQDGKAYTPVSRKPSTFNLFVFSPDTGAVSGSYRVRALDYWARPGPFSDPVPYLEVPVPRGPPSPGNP
UniProt Q9NRY2: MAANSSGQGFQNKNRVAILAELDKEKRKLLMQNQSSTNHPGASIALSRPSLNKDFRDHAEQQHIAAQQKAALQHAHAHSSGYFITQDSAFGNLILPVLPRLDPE
UniProt Q96F46, whole entry, looked up: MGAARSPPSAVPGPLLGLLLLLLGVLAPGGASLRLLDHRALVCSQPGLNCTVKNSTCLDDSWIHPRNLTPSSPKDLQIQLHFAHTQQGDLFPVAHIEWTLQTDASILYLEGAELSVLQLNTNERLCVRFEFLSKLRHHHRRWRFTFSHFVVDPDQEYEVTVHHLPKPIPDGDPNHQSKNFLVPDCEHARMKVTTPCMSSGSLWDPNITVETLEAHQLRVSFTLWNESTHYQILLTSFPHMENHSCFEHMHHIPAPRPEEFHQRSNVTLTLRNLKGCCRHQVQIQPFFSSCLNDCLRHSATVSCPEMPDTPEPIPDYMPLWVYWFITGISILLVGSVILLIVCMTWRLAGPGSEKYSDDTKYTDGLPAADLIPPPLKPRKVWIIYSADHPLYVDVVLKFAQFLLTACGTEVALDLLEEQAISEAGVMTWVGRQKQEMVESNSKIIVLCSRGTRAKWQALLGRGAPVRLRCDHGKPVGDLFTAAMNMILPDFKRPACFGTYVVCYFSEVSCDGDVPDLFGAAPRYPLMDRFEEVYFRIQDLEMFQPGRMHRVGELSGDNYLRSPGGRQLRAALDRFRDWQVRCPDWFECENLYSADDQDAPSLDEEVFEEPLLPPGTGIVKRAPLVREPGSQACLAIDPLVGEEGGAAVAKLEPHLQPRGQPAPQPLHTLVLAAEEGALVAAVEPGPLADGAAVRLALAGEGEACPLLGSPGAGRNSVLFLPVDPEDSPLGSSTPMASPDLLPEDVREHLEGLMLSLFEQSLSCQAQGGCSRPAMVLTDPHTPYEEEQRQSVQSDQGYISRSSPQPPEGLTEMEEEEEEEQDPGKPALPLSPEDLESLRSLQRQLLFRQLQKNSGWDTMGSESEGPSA

Assays:
Test in all cases: log2 fold change, soluble protein after heating vs DMSO (PISA); higher = thermal stabilisation; K562 cells, 10 uM, 30 min; active = over 0.2 and 3.5 SD of the protein, either way, in both replicates (recomputed)
[1] = compound: Cn1cc(-c2ccc3c(c2)CCN3C(=O)Cc2cccc(C(F)(F)F)c2)c2c(N)ncnc21
Method in brief: (§1)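 K562 cells at 2×10^6 cells/mL were treated for 30 min with 10 μM compound, and aliquots were heated for 3 min over 48°C-58°C before pooling. Extraction used PBS with 0.5% NP-40 at 4°C, and soluble protein was the supernatant after 21,000xg for 90 min, measured by TMTpro 16plex LC-MS/MS with channel sums equalised. Thermal stability values, relative to control samples and from duplicates, are log2 fold changes.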

[2] = compound: Cn1cncc1[C@@](N)(c1ccc(Cl)cc1)c1ccc2c(c1)c(-c1cccc(Cl)c1)cc(=O)n2C [tipifarnib]
Method in brief: as §1

[3] = compound: FC(F)(F)c1ccc(/C=C/c2nc(COc3ccc(CCCCn4ccnn4)cc3)co2)cc1 [mubritinib]
Method in brief: as §1

[4] = compound: NC1(c2ccc(-c3nc4ccn5c(=O)[nH]nc5c4cc3-c3ccccc3)cc2)CCC1
Method in brief: as §1

[5] = compound: O=C(CCCCCCNC(=O)c1cnc(N(c2ccccc2)c2ccccc2Cl)nc1)NO [citarinostat]
Method in brief: as §1

[6] = compound: O=C(O)c1ccc2c(c1)nc(Nc1cccc(Cl)c1)c1ccncc12 [silmitasertib]
Method in brief: as §1

[7] = compound: c1cc(OCCN2CCCCC2)cc(-c2n[nH]c3ccc(-c4nnc[nH]4)cc23)c1
Method in brief: as §1

[8] = compound: NC(=O)Nc1cc(-c2cccc(F)c2)sc1C(=O)N[C@H]1CCCNC1
Method in brief: as §1

[9] = compound: Nc1ccccc1NC(=O)c1ccc(CNC(=O)OCc2cccnc2)cc1 [entinostat]
Method in brief: as §1

[10] = compound: Cn1cc(-c2ccc3nnc(C(F)(F)c4ccc5ncccc5c4)n3n2)cn1
Method in brief: as §1

[11] = compound: NCC(=O)Nc1ccc(-n2nc(C(F)(F)F)cc2-c2ccc3c(ccc4ccccc43)c2)cc1
Method in brief: as §1

[12] = compound: O=C1NC(=O)C(c2cnc3ccccn23)=C1c1cn2c3c(cc(F)cc13)CN(C(=O)N1CCCCC1)CC2
Method in brief: as §1

[13] = compound: Cc1nc(Nc2ncc(C(=O)Nc3c(C)cccc3Cl)s2)cc(N2CCN(CCO)CC2)n1 [dasatinib]
Method in brief: as §1

[14] = compound: Cc1cccc(CC(=O)N2CCc3c2ccc(-c2cn(C)c4ncnc(N)c24)c3F)n1
Method in brief: as §1

[15] = compound: NC(=O)c1cnc(N[C@@H]2CCCC[C@@H]2N)nc1Nc1cccc(-n2nccn2)c1
Method in brief: as §1

[16] = compound: O=C(CCCCCCC(=O)Nc1ccccc1)NO [vorinostat]
Method in brief: as §1

[17] = compound: Cc1cn(-c2cc(NC(=O)c3ccc(C)c(Nc4nccc(-c5cccnc5)n4)c3)cc(C(F)(F)F)c2)cn1 [nilotinib]
Method in brief: as §1

[18] = compound: Cc1nc(Nc2n[nH]c3c2CN(C(=O)N[C@H](CN(C)C)c2ccccc2)C3(C)C)c2sccc2n1
Method in brief: as §1

[19] = compound: Cc1ncc(-c2ccnc(Nc3ccc(S(C)(=O)=O)cc3)n2)n1C(C)C
Method in brief: as §1

Measured: log2 fold change

ING5 (UniProt Q8WYH8)
inactive: [1] 0.164 | [2] 0.045 | [3] 0.206 | [4] -0.042 | [5] 0.115 | [6] -0.013 | [7] -0.008

IQSEC1 (UniProt Q6DN90)
inactive: [8] -0.049 | [9] -0.076

ITPRID2 (UniProt P28290)
inactive: [10] -0.032 | [2] -0.056 | [11] -0.059 | [5] -0.029 | [12] -0.208 | [7] 0.211

INTS12 (UniProt Q96CB8)
inactive: [13] -0.247 | [1] 0.289 | [11] -0.318

IMP4 (UniProt Q96G21)
inactive: [14] 0.028 | [13] -0.415 | [10] 0.047 | [8] 0.12 | [15] 0.007 | [9] -0.175 | [16] -0.039

ISL2 (UniProt H0YN25)
inactive: [13] 0.071

IL2RG (UniProt P31785)
inactive: [14] 0 | [17] -0.128 | [18] 0.255 | [19] 0.154 | [1] 0.137 | [11] -0.041 | [16] -0.011 | [12] -0.091

INPP5K (UniProt Q9BT40)
inactive: [14] -0.067 | [17] 0.038 | [18] 0.086 | [13] -0.241 | [19] -0.109 | [1] 0.06 | [10] 0.072 | [3] -0.005 | [8] 0.207 | [4] -0.225 | [11] -0.109 | [9] -0.323 | [16] 0.074 | [5] -0.024 | [6] -0.135 | [12] 0.029 | [7] -0.018

IQSEC2 (UniProt Q5JU85)
inactive: [17] 0.068 | [18] 0.006 | [13] -0.408 | [19] 0.347 | [1] 0.001 | [2] 0.007 | [3] -0.14 | [4] 0.103 | [5] -0.08 | [6] 0.177 | [7] -0.046

IGFBP6 (UniProt P24592)
inactive: [13] -0.038 | [1] 0.152 | [10] 0.006 | [15] -0.079 | [11] -0.13

ITGB3BP isoform 5 (UniProt Q13352)
inactive: [17] 0.211 | [18] 0.052 | [19] -0.101 | [10] -0.058

IKZF1 (UniProt R9R4D9)
inactive: [14] -0.164 | [13] -0.17 | [1] -0.044 | [2] -0.119 | [16] -0.181

ITIH1 (UniProt P19827)
inactive: [3] -0.153 | [15] 0.073 | [4] -0.021 | [5] 0.176 | [6] 0.504 | [7] -0.05

IDS (UniProt P22304)
inactive: [14] -0.136 | [10] 0.207 | [2] 0.048 | [16] -0.048

IGLC3 (UniProt P0DOY3)
inactive: [17] 0.328 | [18] 0.054 | [19] 0.346 | [3] -0.165 | [4] 0.001 | [5] 0.126 | [6] 0.602 | [7] 0.191

ITPR3 (UniProt Q14573)
inactive: [1] -0.35 | [11] -0.142 | [5] 0.068 | [7] 0.055

IGHA2 (UniProt P01877)
inactive: [17] -0.282 | [18] -0.07 | [19] 0.58

IGSF1 isoform 4 (UniProt Q8N6C5)
inactive: [2] 0.157 | [3] 0.049 | [15] 0.04 | [4] -0.07 | [5] 0.059 | [6] 0.123 | [7] -0.331

IGKV3D-11, A0A0A0MRZ8
inactive: [17] 0.674 | [18] -0.16 | [19] -0.007

ING3 (UniProt Q9NXR8)
inactive: [14] 0 | [16] 0.194 | [5] 0.08 | [7] 0.013

IGFBP5 (UniProt P24593)
inactive: [3] -0.024 | [8] 0.19 | [4] -0.33 | [11] -0.172 | [9] 0.078 | [6] 0.055 | [12] -0.078

ING4 (UniProt Q9UNL4)
inactive: [13] -0.149 | [15] -0.114 | [12] -0.006

INCENP (UniProt Q9NQS7)
inactive: [10] -0.268

INTS2 (UniProt Q9H0H0)
inactive: [14] 0.095 | [1] -0.124 | [10] -0.047 | [2] 0.093 | [3] 0.061 | [8] 0.084 | [15] -0.079 | [4] -0.076 | [11] 0.126 | [9] 0.081 | [16] -0.009 | [5] 0.004 | [6] -0.028 | [12] 0.003 | [7] 0.205

9 successive entries already listed:
IL2RG (UniProt P31785)
inactive: [14] 0 | [17] -0.128 | [18] 0.255 | [19] 0.154 | [1] 0.137 | [11] -0.041 | [16] -0.011 | [12] -0.091

INPP5K (UniProt Q9BT40)
inactive: [14] -0.067 | [17] 0.038 | [18] 0.086 | [13] -0.241 | [19] -0.109 | [1] 0.06 | [10] 0.072 | [3] -0.005 | [8] 0.207 | [4] -0.225 | [11] -0.109 | [9] -0.323 | [16] 0.074 | [5] -0.024 | [6] -0.135 | [12] 0.029 | [7] -0.018

IQSEC2 (UniProt Q5JU85)
inactive: [17] 0.068 | [18] 0.006 | [13] -0.408 | [19] 0.347 | [1] 0.001 | [2] 0.007 | [3] -0.14 | [4] 0.103 | [5] -0.08 | [6] 0.177 | [7] -0.046

IGFBP6 (UniProt P24592)
inactive: [13] -0.038 | [1] 0.152 | [10] 0.006 | [15] -0.079 | [11] -0.13

ITGB3BP isoform 5 (UniProt Q13352)
inactive: [17] 0.211 | [18] 0.052 | [19] -0.101 | [10] -0.058

IKZF1 (UniProt R9R4D9)
inactive: [14] -0.164 | [13] -0.17 | [1] -0.044 | [2] -0.119 | [16] -0.181

ITIH1 (UniProt P19827)
inactive: [3] -0.153 | [15] 0.073 | [4] -0.021 | [5] 0.176 | [6] 0.504 | [7] -0.05

IDS (UniProt P22304)
inactive: [14] -0.136 | [10] 0.207 | [2] 0.048 | [16] -0.048

IGLC3 (UniProt P0DOY3)
inactive: [17] 0.328 | [18] 0.054 | [19] 0.346 | [3] -0.165 | [4] 0.001 | [5] 0.126 | [6] 0.602 | [7] 0.191

The list goes on.

INTS1 (UniProt Q8N201)
inactive: [14] -0.09 | [17] -0.057 | [18] 0.508 | [13] -0.128 | [19] 0.049 | [10] -0.239 | [3] -0.044 | [8] 0.065 | [4] 0.044 | [9] -0.364 | [16] -0.065 | [5] -0.179 | [6] -0.091 | [12] -0.168 | [7] -0.343

IPMK (UniProt Q8NFU5)
inactive: [17] 0.055 | [18] -0.009 | [19] 0.157

IDUA (UniProt P35475)
inactive: [14] 0.04 | [2] 0.121 | [3] -0.13 | [4] -0.031 | [16] -0.103 | [6] -0.002 | [12] -0.135

IGF2 isoform 3 (UniProt P01344)
inactive: [13] 0.019 | [11] -0.004

INIP (UniProt Q9NRY2)
inactive: [17] 0.067 | [18] -0.004 | [19] -0.115 | [2] -0.07 | [3] 0.024 | [8] -0.024 | [4] 0.046 | [11] 0.141 | [9] 0.023 | [5] -0.004 | [6] -0.028 | [12] -0.16 | [7] -0.035

IFT27 (UniProt Q9BW83)
inactive: [14] -0.025 | [13] 0.136 | [1] 0.015 | [2] 0.087 | [15] -0.037 | [16] -0.222

IL17RA (UniProt Q96F46)
inactive: [3] 0.134 | [8] 0.044 | [15] 0.005 | [4] -0.063 | [9] -0.154 | [6] 0.09
